The list shows a part of the results. The main result of the screen is listed elsewhere. These columns were measured beside it and carry no call. The list favours compounds with an active or inconclusive main result. Words in brackets tell the shape of the fitted curve; partial curves, single points and poor fits give uncertain potencies.
Assay: qHTS Assay for Lipid Storage Modulators in Drosophila S3 Cells;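 on cell number change: cells counted by Cell Tracker Red CMTPX staining in the red channel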
Settings: BODIPY lipid droplet fluorescence, 18-24 h; for cell number change: measured here: cell count max response, cells fed with added oleic acid
Procedure, shortened: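 Drosophila S3 cells loaded with oleic acid (400 uM, as added) and compounds at several concentrations; lipid droplets imaged by 488-nm laser-scanning cytometry, 500–530 nm intensity and object ratio to cell channel. Percent activity normalized to 20 uM Triacsin C.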

[1] = measured here: lipid fluorescence (Fed channel) AC50, cells fed with added oleic acid
[2] = measured here: cell number channel AC50, cells fed with added oleic acid

Row | Compound | cell number change | AC50 [1] | AC50 [2]
1 | C=CCNC(=S)N/N=C/c1ccc(-c2cccc([N+](=O)[O-])c2)o1 | -10.6% |  | 
2 | COc1cc(OC)cc(-n2c3nc4ccccc4nc3c3c(=O)n(CC4CCCO4)cnc32)c1 (stereo not given) | 6.42% | 0.651 µM [rising, full curve] | 
3 | CCCCCCCCC1=NCCc2c1[nH]c1ccccc21 | -55.1% | 25.9 µM [falling, single point] | 29.1 µM [falling, single point]
4 | Cc1cc(C)cc(NC(=O)CSCc2cc(=O)n3ccsc3n2)c1 | 5.1% | 3.66 µM [rising, single point] | 
5 | O=S1(=O)CC(O)C(N=Nc2c(O)n(Cc3ccccc3)c3ccccc23)C1 (stereo not given) | 29.2% |  | 
6 | COc1ccc(/C=N/NS(=O)(=O)c2ccc(C)cc2)cc1 | 12.8% | 6.51 µM [rising, single point] | 
7 | Cc1ccc(C(C)C)c(OCCN2C(=O)NC(C)(C)C2=O)c1 | 14.4% | 1.64 µM [falling, partial curve] | 
8 | Cc1ccc(C(=O)CN(CCCC(N)=O)S(=O)(=O)c2ccc([N+](=O)[O-])cc2)cc1 | 4.62% | 0.00411 µM [rising, full curve, poor fit] | 0.0259 µM [rising, partial curve, poor fit]
9 | NC(=S)N/N=C/c1cc([N+](=O)[O-])ccc1OCCOc1ccccc1 | -24.6% |  | 
10 | O=C(COc1ccc(Br)cc1CNCCc1ccccc1)NCc1ccccc1 | -41.7% | 14.1 µM [falling, single point] | 15.8 µM [falling, single point]
11 | CCCn1ncc(C(=O)NC2CCCN(Cc3ccc(Cl)cc3)C2)c1C (stereo not given) | 24.4% |  | 
12 | COc1ccc(NC(=O)CSCC(=O)Nc2ccc(S(=O)(=O)N3CCOCC3)cc2)cc1 | 23.1% | 0.0291 µM [falling, full curve, poor fit] | 
13 | CCc1cc2c(=O)c(-c3ccc4c(c3)OCCO4)c(C)oc2cc1OS(C)(=O)=O | -23.2% | 18.4 µM [falling, single point] | 
14 | C=CCN(C(=O)CNC(=O)c1ccco1)C(C(=O)NC1CCCCC1)c1ccccc1 (stereo not given) | 18.1% |  | 
15 | CC1CCc2cc(F)ccc2N1C(=O)CSc1nnc2c3ccccc3n(C)c2n1 (stereo not given) | 29.1% | 1.84 µM [rising, partial curve, poor fit] | 
16 | CC(C)Cc1nnc(NC(=O)CCC(=O)Nc2ccccc2)s1 | -2.12% | 0.651 µM [rising, single point] | 
17 | O=C(CCS(=O)(=O)Cc1ccccc1)N1CCN(Cc2ccccc2)CC1 | -9.8% |  | 
18 | O=C(NCc1ccccc1)c1cccc(COc2ccc(Cl)cc2)c1 | -28.1% |  | 
19 | Cc1ccc[n+](-c2[nH]c(=O)sc2/C=N/N=C(\[O-])c2cccnc2)c1 | 7.66% |  | 
20 | CCOC(=O)c1cccc(NC(=O)C2CCCO2)c1 (stereo not given) | 9.69% | 2.06 µM [falling, partial curve] | 
21 | COc1ccc(C)cc1Cn1nnc2ccccc21 | -4.92% | 8.2 µM [rising, partial curve, poor fit] | 

A different layout for part of the listing above:
Row,Compound,cell number change,AC50 [1],AC50 [2]
5,O=S1(=O)CC(O)C(N=Nc2c(O)n(Cc3ccccc3)c3ccccc23)C1 (stereo not given),29.2%,,
6,COc1ccc(/C=N/NS(=O)(=O)c2ccc(C)cc2)cc1,12.8%,"6.51 µM [rising, single point]",
7,Cc1ccc(C(C)C)c(OCCN2C(=O)NC(C)(C)C2=O)c1,14.4%,"1.64 µM [falling, partial curve]",

Carrying on:

Row | Compound | cell number change | AC50 [1] | AC50 [2]
22 | CN(/N=C/c1ccccc1O)C(=S)c1ccccc1 | 22% |  | 
23 | CC(=O)C1CCN(Cc2ccccc2)CC1 | -31.7% | 18.4 µM [falling, partial curve] | 2.31 µM [falling, full curve]
24 | C=CCn1c(CSCc2ccc(Cl)cc2)nnc1SCC(=O)NCc1ccccc1 | 19.2% |  | 
25 | CC(=O)c1cnn(-c2cc(Oc3ccc(F)cc3)ncn2)c1C | 2.66% | 6.51 µM [rising, single point] | 
26 | Cc1ccc2nc(N3CC(=O)Nc4ccccc43)nc(-c3ccccc3)c2c1 | -60.7% | 29.1 µM [falling, single point] | 18.4 µM [falling, single point]
27 | O=C1c2ccccc2C(=O)c2c1ccc(C(=O)N1CCCCC1)c2NCCO | -1.93% |  | 
28 | O=C(COC(=O)CC1CCCC1)Nc1cc2c(cc1Cl)C(=O)c1ccccc1C2=O | -2.4% | 0.231 µM [falling, full curve] | 
29 | COc1ccc(CNCC(O)(c2ccccc2)c2ccccc2)cc1OC | -30.8% |  | 0.58 µM [rising, full curve]
30 | COc1ccccc1NC(=O)CCC(=O)OCc1ccc(Cl)cc1 | 8.17% | 29.1 µM [falling, single point] | 
31 | Cc1ccc(-c2nnn(CC(=O)N(CC3CCCO3)C(C(=O)NC3CCCCC3)c3ccc(F)cc3)n2)o1 (stereo not given) | 12.5% | 8.2 µM [rising, partial curve] | 6.51 µM [rising, single point]
32 | CC1CCC(C(=O)c2c(O)c3ccccc3oc2=O)CC1 (stereo not given) | -7.76% | 0.13 µM [rising, full curve, poor fit] | 
33 | COc1ccc(C(CNC(=O)c2ccc(NS(=O)(=O)c3ccc4c(c3)OCCO4)cc2)N(C)C)cc1 (stereo not given) | 52.5% |  | 29.1 µM [rising, single point]
34 | COC(=O)Nc1ccc(S(=O)(=O)NCc2ccccn2)cc1 | 12.6% |  | 
35 | Cc1c(C(=O)Nc2cccc(Cl)c2)cn2c(nc3ccccc32)c1C#N | 0.287% | 4.61 µM [rising, single point] | 
36 | CC(C)OCCCNC(=O)C1CCN(S(=O)(=O)N2CCCC2)CC1 | 15.9% | 0.461 µM [falling, single point] | 
37 | Cc1ccccc1NC(=O)CSc1nc2ccccc2c(=O)n1C |  | 0.291 µM [falling, partial curve, poor fit] | 
38 | CC(O)C(C(=O)OCc1ccc([N+](=O)[O-])cc1)N1C(=O)c2ccccc2C1=O (stereo not given) |  | 5.8 µM [falling, full curve, poor fit] | 
39 | CC1CCN(C(=O)C2CCN(S(=O)(=O)c3ccc(-n4cnnn4)cc3)CC2)CC1 | 30.3% |  | 29.1 µM [rising, single point]
40 | CC(=O)N1CCN=C1SCc1ccc(Br)cc1 | 59.9% | 20.6 µM [rising, partial curve] | 10.3 µM [rising, partial curve]
41 | CNc1ccccc1C(C)(C)c1cc(-c2cccc(OC)c2)no1 | 3.91% | 32.6 µM [falling, partial curve, poor fit] | 

Source: PubChem BioAssay AID2685 (National Center for Advancing Translational Sciences (NCATS), 2010)
